This note sets out measurements from article PMC5200908.

In this experiment the target is HA-Reck. Description: proximity ligation; HEK293T cells 48 h after transfection with FLAG-adgra2 or FLAG-adgra2^ouchless and HA-reck, plus a Wnt7a (mouse gene) expression construct; fixed 15 min in 4% paraformaldehyde; mouse anti-FLAG M2 1:10,000 and rabbit anti-HA 1:400.

Results are given in words; binding and its absence hold for the method and conditions named. Binding seen in cells or lysates may run through a third protein. A result given as binding can be weak or reduced; the word gives no strength. Where a sequence is shown, tags or fusion partners need not be part of it.

B1: FLAG-Adgra2 (receptor, UniProt E7FBY6 27-1367)
chain: CPELFSSGCSCTEDRSKAHPTPGTRRKVSCGGKELTETPEVSLLPNRTVSLNLSNNRIRMLKNGSFAGLSSLEKLDLRNNLISTIMPGAFLGLTALRKLDLSSNRIGCLTPEMFQGLTNLTKLNISGNIFSSLDPNVFMELHSLKLVNFHSEFLSCDCGLRWVPSFFRSGSARLGDETLCAYPRRLQNKPLRLLRESDLSCEGPLELHTLSLLPSQRQVVFKGDRLPFHCTASLVDKITALHWRQNGQPVTSDPTKGIHLEESVQHDCTFITSELILSNVHVEASGEWECVVSTGRGNTSCSVEIVVLENSASFCPEQKVNNNRGEFRWPRTLAGITSYQHCLQLRYPSLTLGGGVEQKKASRNCDRSGRWEEADYSQCLYTNDITRILHTFILMPVNASNAVTLAHQVRSYTLEAAGFTDTVDVLYVAQMMHKFMDYVTELRELSEVLVEMGSNLMQVDDQILARAQREERACSSIVYTLETLAWPQLHSHAQDLSRYSRNIVMEAHLIRPAHFTGISCTVYQRREGAAGSQVHDGADLSLEQQLRFRCTTGTHNTSLNAFHLKNAVALATVSLPATLFPPNAPPDCKLQFVAFRNGRFFPFTSNFTGHSDLARRRGISTPVIYAGLDGCSMWNQSDPIIVSLRHTSPGHDPVAAHWNSQALGHHGSWSLDGCQLIHSDVSISTLRCSVLSNYAVLQEIPDFPGSPSIPVEVLHPVIYTCTAVLLLCLFTIIITYILHHSSIRITRKSWHTLLNTSFHVAMTSAVFAGGITLTGYPIVCQAVGIVLHYSSLSTLLWIGVSARVIYKEALLRTPQQLEGESAVQPTQRPMLRFYLIAGGVPLIICGITAAVNINNYGDNIPYCWLVWQPSFGAFYIPAGLIILVTWIYFLCTVFCLRQRNFQESKDLQCSASDPSNLPESQPALSGSTSLLSTDSGVSPVHAGTTVEDQYSLKVQCLALMATQFVFVGLWCCGAMAVWHVDRERKLFSCLYGGTATGLGIFLVLHHCFKRLDVQAAWLGCCPGYHRSQPMPAYSHPCTVTVGVQSASERGSQLFVACHPPTDPNHYSSSARSSSTQSGTASITVVPSKLTNLLQVSQDNANNASRAPAGTNTNTSTSTENNKPTNNLLPSLLPVQQPQRRKACSRTKGGNTQYHHRGDARSHYRLKALRAGGGGSMGALGPSGTEHSNIYHVHKHASSENGSLRNSHSEGQNGLLTNGRHRGEGLATSPSEGSDGGSSGSRKPFPLLPSVARRAAMQQNAQCRSASKDNLKLAAAAERESKRSSFPLNMSSNVTATASLSTVSAPNGTLKGSVVELDTSGTDQSQGSVGMKSRVWKSETTV
For the molecule B1, the binding entry is “binds”.
